Experimental data as given in publication doi:10.1101/2023.01.05.522749.
These are yes or no findings as the source states them, for the method shown. Some entries that bind do so weakly or less than the wild type. Tags and fused reporters may be left off the sequences shown.

The chains behind the UniProt entries cited, without tags or fusion partners.
UniProt Q94AH6: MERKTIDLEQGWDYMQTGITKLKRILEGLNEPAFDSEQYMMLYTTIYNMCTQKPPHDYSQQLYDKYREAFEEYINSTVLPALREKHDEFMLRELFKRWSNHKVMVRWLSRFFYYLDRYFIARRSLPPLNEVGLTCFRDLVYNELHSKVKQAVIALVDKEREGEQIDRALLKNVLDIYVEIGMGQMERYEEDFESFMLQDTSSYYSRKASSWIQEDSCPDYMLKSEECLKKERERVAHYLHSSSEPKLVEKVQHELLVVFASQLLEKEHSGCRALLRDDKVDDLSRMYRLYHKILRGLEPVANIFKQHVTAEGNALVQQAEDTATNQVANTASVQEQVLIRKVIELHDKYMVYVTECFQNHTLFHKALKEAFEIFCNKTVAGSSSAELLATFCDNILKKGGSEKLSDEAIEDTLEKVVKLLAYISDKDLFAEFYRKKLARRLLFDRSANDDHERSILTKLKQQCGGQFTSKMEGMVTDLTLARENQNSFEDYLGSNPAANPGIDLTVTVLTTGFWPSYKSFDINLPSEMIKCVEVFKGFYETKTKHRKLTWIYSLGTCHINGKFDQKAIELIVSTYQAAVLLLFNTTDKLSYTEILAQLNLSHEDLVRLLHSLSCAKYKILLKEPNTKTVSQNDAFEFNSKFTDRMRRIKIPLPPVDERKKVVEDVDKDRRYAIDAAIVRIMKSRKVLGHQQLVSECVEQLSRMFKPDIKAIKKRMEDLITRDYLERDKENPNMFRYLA

Biological target: T1, TRANSPORT INHIBITOR RESPONSE 1 (TIR1), Gal4 DNA-binding domain fusion for yeast two-hybrid (Arabidopsis thaliana) (UniProt Q570C0)
T1 sequence: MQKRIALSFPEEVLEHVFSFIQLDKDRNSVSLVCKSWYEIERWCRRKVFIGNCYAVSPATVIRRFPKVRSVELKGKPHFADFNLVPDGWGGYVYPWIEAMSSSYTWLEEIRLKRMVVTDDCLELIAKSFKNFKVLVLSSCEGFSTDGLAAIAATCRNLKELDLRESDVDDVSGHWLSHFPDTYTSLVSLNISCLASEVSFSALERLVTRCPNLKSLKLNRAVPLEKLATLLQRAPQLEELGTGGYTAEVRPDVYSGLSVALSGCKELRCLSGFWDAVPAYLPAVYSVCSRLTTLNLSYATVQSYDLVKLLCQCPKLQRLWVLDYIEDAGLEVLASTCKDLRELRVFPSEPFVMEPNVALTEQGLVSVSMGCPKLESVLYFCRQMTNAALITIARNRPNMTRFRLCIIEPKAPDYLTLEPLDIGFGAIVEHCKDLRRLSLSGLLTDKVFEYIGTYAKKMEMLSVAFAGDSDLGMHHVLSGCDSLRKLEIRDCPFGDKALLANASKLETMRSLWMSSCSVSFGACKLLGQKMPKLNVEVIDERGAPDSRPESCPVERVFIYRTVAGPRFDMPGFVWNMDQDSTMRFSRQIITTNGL
Test: two-hybrid

- binding: binds
Substance: Cullin1 (CUL1), Gal4 activation domain fusion for yeast two-hybrid (from UniProt Q94AH6 1-738)
